Test results: patent US6545131B1 (priority 1997, dated 2003)

Assay: general procedure: peptide synthesis; copoly(styrene-divinylbenzene) containing 0.1-1.0 mM amine/gram polymer
Conditions: conjugation step, trifluoroacetate salt

Q: Which “final HPLC purity” value does the source give for “Mu-His-Ser-Ser-Lys-Leu-Gln-doxorubicin (HSSKLQ; N-terminal morpholino/acetyl cap; doxorubicin conjugate; VARIANT (1) N-term Ac (Acetyl); listed as Homo sapiens)” here?
A: The value was over 98% purity.

Q: For “PEPTIDE1{[Mu].H.S.S.K.L.Q.L.[Dox]}$$$$V2.0”, which “final HPLC purity” value is on record?
A: Its value is over 98% purity.

Some peptides are written in HELM: one residue between dots, names in brackets for other building blocks, links after the first $.
